These are yes or no findings as the source states them, for the method shown. In cells and extracts the contact can be indirect. Some entries that bind do so weakly or less than the wild type. Where a sequence is shown, tags or fusion partners need not be part of it.
Molecular target: T1, full-length PTP1B^WT with an N-terminal myc-tag (UniProt P18031)
T1 sequence: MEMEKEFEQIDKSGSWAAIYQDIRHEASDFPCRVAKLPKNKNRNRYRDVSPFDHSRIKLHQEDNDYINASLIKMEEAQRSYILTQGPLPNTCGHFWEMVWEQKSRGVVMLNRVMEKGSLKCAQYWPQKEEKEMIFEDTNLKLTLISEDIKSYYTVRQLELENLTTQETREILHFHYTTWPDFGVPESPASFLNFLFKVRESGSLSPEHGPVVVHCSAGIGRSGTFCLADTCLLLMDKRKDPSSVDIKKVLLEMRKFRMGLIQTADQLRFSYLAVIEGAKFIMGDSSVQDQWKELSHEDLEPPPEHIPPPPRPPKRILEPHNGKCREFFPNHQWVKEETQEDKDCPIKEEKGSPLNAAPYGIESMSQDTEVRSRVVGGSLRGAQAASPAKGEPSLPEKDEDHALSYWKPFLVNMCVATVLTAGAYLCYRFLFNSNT
Assay: co-IP; HEK 293 cells transfected with N-terminally myc-tagged full-length PTP1B; immunoprecipitated with myc-tag-specific beads; co-immunoprecipitated protein seen by western blot; six separate transfections

B1: ARHGAP12 (protein, UniProt Q8IWW6 1-846)
chain: MKMADRSGKIIPGQVYIEVEYDYEYEAKDRKIVIKQGERYILVKKTNDDWWQVKPDENSKAFYVPAQYVKEVTRKALMPPVKQVAGLPNNSTKIMQSLHLQRSTENVNKLPELSSFGKPSSSVQGTGLIRDANQNFGPSYNQGQTVNLSLDLTHNNGKFNNDSHSPKVSSQNRTRSFGHFPGPEFLDVEKTSFSQEQSCDSAGEGSERIHQDSESGDELSSSSTEQIRATTPPNQGRPDSPVYANLQELKISQSALPPLPGSPAIQINGEWETHKDSSGRCYYYNRGTQERTWKPPRWTRDASISKGDFQNPGDQELLSSEENYYSTSYSQSDSQCGSPPRGWSEELDERGHTLYTSDYTNEKWLKHVDDQGRQYYYSADGSRSEWELPKYNASSQQQREIIKSRSLDRRLQEPIVLTKWRHSTIVLDTNDKESPTASKPCFPENESSPSSPKHQDTASSPKDQEKYGLLNVTKIAENGKKVRKNWLSSWAVLQGSSLLFTKTQGSSTSWFGSNQSKPEFTVDLKGATIEMASKDKSSKKNVFELKTRQGTELLIQSDNDTVINDWFKVLSSTINNQAVETDEGIEEEIPDSPGIEKHDKEKEQKDPKKLRSFKVSSIDSSEQKKTKKNLKKFLTRRPTLQAVREKGYIKDQVFGSNLANLCQRENGTVPKFVKLCIEHVEEHGLDIDGIYRVSGNLAVIQKLRFAVNHDEKLDLNDSKWEDIHVITGALKMFFRELPEPLFTFNHFNDFVNAIKQEPRQRVAAVKDLIRQLPKPNQDTMQILFRHLRRVIENGEKNRMTYQSIAIVFGPTLLKPEKETGNIAVHTVYQNQIVELILLELSSIFGR
**Q.** B1 was tested. Which binding did it give?
**A.** binds

Reference: doi:10.1101/2024.07.16.603632
